Our source for the log2 fold change values is the supplement of paper PMC10849652.

Amino acid sequences for entries named in this document (tags omitted). A change or cut given only in a name is not applied to a line headed by its entry.
UniProt Q9NP72: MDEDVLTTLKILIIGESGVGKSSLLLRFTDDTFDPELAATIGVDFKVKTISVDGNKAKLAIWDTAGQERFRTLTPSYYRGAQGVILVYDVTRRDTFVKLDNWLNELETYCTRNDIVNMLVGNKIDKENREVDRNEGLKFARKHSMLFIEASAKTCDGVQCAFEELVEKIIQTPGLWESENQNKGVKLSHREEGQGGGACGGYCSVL
UniProt Q96B01: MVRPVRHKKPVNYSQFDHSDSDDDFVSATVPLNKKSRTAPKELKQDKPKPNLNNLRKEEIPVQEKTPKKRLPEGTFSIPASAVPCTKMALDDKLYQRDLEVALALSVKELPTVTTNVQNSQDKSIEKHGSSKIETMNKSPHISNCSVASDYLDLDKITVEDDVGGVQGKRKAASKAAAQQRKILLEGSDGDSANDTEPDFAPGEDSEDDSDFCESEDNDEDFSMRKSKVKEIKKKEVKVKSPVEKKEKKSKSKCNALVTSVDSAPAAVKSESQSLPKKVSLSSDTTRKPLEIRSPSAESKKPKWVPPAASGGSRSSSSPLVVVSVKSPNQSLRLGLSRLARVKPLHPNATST
UniProt P20936: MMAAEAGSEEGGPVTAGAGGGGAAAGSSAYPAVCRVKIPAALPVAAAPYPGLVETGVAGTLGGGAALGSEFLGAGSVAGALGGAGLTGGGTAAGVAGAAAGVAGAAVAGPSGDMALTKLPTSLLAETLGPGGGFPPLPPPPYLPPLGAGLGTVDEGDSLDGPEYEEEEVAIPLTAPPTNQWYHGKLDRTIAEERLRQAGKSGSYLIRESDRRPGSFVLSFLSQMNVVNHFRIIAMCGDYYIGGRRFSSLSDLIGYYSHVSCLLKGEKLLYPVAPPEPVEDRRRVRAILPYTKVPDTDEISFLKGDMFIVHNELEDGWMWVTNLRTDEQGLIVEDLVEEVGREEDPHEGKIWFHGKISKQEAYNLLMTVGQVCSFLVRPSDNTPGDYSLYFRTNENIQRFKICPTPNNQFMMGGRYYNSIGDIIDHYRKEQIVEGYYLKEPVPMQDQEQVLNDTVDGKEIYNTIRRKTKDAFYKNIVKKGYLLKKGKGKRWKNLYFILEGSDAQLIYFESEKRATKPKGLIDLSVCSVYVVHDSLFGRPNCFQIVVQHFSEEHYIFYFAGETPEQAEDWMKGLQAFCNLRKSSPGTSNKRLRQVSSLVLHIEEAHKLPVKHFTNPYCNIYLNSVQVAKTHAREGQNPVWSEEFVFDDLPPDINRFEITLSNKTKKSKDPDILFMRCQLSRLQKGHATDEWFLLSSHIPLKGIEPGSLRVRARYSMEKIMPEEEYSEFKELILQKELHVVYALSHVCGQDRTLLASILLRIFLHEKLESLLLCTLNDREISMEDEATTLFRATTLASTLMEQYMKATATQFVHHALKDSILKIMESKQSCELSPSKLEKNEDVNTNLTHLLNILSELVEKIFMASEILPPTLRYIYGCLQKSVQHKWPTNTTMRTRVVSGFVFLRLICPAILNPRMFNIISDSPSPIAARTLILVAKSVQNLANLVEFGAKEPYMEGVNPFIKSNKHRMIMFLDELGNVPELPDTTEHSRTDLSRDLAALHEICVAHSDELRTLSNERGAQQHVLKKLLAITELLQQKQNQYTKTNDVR
UniProt Q96E17: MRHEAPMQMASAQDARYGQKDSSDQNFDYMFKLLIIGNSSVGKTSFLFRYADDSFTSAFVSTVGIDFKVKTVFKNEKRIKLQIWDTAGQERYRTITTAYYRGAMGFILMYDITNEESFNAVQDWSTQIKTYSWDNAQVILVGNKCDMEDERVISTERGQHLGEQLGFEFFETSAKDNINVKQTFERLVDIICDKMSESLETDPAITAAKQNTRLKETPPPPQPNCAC
UniProt P20340: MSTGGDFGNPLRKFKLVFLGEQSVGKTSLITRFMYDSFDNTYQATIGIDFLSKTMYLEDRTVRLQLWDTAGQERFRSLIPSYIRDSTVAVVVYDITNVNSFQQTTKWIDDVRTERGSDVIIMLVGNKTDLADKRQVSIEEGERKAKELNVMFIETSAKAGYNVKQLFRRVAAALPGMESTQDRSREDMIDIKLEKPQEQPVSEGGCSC
UniProt P61026: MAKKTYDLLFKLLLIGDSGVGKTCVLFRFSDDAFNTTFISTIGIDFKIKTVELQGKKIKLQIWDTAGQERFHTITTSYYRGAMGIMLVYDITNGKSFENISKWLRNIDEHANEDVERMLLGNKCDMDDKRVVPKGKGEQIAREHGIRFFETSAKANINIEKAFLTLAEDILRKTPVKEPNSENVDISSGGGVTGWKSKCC
UniProt P98175: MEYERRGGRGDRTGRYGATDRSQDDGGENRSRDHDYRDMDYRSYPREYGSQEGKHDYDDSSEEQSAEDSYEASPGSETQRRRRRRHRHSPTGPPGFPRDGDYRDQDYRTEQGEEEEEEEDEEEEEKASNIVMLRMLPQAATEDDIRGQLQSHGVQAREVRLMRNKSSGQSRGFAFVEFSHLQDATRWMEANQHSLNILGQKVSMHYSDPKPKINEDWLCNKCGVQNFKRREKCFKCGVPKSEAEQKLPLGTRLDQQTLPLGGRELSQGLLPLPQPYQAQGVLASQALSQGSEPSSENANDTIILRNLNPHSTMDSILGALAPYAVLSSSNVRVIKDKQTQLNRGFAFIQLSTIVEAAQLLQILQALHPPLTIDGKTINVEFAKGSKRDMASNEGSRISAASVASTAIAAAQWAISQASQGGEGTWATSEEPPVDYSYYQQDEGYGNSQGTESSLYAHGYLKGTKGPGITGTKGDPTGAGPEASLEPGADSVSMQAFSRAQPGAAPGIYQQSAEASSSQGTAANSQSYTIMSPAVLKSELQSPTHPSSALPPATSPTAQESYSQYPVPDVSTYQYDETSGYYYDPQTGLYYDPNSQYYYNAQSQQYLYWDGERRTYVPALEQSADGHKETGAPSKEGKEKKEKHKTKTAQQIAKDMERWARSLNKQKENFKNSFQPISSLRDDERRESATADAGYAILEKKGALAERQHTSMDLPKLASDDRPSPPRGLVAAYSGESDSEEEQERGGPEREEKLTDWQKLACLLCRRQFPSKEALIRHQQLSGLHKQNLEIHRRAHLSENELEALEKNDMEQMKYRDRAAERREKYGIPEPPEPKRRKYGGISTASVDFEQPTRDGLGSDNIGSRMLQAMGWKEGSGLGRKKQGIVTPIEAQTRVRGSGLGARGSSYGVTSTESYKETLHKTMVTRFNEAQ
UniProt Q99638: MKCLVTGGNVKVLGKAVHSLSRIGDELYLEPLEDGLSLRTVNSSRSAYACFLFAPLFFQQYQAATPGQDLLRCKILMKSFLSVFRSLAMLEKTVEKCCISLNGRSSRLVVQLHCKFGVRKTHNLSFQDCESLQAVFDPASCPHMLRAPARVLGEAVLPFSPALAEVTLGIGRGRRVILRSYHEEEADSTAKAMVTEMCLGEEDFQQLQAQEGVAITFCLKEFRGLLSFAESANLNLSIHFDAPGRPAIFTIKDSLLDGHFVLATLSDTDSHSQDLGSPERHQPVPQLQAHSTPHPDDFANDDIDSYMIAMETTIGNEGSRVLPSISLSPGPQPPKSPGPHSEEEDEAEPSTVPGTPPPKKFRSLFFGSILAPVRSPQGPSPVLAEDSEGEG
UniProt Q9H6Z4: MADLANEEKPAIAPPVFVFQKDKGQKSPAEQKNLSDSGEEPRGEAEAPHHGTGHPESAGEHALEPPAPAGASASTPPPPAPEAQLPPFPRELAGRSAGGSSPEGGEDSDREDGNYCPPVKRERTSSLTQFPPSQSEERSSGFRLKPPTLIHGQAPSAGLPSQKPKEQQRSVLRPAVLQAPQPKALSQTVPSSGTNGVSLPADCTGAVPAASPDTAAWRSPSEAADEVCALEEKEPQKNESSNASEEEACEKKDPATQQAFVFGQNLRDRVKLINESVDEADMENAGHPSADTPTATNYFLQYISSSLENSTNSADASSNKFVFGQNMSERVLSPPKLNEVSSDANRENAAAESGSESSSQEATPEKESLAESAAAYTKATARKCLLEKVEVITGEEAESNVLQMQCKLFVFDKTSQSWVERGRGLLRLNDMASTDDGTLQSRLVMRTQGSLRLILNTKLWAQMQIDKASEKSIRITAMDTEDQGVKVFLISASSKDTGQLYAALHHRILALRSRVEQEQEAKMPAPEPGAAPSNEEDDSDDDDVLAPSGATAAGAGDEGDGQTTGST
UniProt P62491: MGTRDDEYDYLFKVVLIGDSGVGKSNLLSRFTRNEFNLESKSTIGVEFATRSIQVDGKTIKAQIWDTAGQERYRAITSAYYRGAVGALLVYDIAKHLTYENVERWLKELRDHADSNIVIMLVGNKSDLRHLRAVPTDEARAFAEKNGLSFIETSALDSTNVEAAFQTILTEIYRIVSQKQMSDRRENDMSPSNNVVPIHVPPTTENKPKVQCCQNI
UniProt Q15907: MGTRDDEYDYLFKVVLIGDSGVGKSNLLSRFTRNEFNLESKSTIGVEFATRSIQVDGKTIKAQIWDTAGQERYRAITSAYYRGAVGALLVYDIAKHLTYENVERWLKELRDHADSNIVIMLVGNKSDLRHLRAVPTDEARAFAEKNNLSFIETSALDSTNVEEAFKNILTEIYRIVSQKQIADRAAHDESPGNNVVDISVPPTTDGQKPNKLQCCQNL
UniProt P11234: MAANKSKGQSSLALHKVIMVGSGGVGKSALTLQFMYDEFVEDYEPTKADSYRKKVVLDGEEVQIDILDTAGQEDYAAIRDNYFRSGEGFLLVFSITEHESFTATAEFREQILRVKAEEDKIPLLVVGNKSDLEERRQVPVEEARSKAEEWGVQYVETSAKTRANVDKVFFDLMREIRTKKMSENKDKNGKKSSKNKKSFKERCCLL
UniProt O00194: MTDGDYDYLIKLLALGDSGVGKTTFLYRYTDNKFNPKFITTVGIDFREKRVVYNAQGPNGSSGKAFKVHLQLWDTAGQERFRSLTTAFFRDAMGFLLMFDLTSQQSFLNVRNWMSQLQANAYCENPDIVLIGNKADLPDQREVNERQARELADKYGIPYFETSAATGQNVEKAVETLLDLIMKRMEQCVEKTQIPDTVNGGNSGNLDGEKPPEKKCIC
UniProt P51159: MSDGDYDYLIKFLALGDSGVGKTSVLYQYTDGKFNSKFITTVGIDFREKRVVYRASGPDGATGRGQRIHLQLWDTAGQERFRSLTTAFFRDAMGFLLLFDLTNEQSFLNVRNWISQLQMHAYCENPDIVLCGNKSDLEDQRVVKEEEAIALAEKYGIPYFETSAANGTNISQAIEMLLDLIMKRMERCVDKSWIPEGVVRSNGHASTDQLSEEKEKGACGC
UniProt P61106, whole entry, looked up: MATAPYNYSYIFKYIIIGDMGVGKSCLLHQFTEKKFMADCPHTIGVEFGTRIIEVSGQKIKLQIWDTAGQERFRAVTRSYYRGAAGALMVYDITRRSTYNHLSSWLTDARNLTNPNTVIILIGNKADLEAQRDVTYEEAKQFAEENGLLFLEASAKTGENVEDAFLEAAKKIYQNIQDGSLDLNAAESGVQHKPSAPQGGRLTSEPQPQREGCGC
UniProt Q15276: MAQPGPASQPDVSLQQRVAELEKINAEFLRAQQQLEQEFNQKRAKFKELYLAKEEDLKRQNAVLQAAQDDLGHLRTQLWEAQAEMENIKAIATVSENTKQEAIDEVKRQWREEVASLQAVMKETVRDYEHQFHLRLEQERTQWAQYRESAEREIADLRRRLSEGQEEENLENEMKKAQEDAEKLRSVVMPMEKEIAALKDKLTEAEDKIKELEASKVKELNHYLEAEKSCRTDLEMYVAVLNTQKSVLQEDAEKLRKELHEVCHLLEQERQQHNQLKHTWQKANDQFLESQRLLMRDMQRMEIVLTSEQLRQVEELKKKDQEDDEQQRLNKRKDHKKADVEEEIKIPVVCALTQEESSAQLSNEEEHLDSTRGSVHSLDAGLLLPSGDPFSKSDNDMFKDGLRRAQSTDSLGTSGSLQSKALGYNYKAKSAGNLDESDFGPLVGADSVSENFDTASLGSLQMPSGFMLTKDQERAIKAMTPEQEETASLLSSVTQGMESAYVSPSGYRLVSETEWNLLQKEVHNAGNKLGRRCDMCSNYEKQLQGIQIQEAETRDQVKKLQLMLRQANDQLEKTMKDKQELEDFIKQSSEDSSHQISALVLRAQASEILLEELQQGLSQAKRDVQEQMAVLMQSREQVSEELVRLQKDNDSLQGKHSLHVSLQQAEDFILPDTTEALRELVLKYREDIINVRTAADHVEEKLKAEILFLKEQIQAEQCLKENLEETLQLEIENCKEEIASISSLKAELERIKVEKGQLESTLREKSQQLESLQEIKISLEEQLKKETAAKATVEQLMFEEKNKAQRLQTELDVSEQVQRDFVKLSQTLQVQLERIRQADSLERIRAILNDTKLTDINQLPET
UniProt P61018: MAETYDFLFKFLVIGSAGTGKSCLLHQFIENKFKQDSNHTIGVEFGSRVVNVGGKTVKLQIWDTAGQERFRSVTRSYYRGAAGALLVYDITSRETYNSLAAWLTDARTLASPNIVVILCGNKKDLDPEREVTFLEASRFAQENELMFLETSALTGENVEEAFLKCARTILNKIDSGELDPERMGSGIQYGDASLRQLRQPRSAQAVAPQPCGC

Some of the results follow.

Compound in the experiment: c1cn2cc(-c3ccc4cn[nH]c4c3)nc(Nc3ccc(N4CCOCC4)cc3)c2n1 [entospletinib]
The experiment is described as follows: log2 fold change, soluble protein after heating vs DMSO (PISA); higher = thermal stabilisation; K562 cells, 10 uM, 30 min; active = over 0.2 and 3.5 SD of the protein, either way, in both replicates (recomputed). The method, boiled down:
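K562 cells at 2×10^6 cells/mL were given 10 μM compound for 30 min. Aliquots then went through 3 min of heating across 48°C-58°C, were pooled, and were extracted in PBS with 0.5% NP-40 at 4°C, and the supernatant after 21,000xg for 90 min was quantified by TMTpro 16plex LC-MS/MS with channel sums equalised. Thermal stability relative to control samples, from duplicates, is given as log2 fold change.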
Turning to RAB8A isoform 2 (UniProt P61006), the log2 fold change was inactive: 0.006.

On to RAD51B (UniProt O15315), for which the log2 fold change is inactive: 0.002.

On to RAB18 (UniProt Q9NP72), for which the log2 fold change is inactive: -0.02.

Take RAD51AP1 (UniProt Q96B01): the log2 fold change was inactive: -0.089.

For the target RABIF (UniProt P47224), the log2 fold change is inactive: -0.021.

Regarding RASA1 (UniProt P20936), the log2 fold change is inactive: -0.029.

As for RBBP5 (UniProt Q15291), the log2 fold change was inactive: -0.03.

RAB3C (UniProt Q96E17): the log2 fold change is inactive: 0.047.

In the case of RAB6A isoform 2 (UniProt P20340), the log2 fold change is inactive: 0.043.

For the target RALGAPB (UniProt Q86X10), the log2 fold change was inactive: -0.145.

As for RACK1 (UniProt P63244), the log2 fold change is inactive: -0.015.

As to RAB10 (UniProt P61026), the log2 fold change is inactive: -0.002.

For the target RAB4A (UniProt P20338), the log2 fold change was inactive: 0.011.

Turning to RAB1B (UniProt Q9H0U4), the log2 fold change is inactive: -0.025.

As for RAP1B (UniProt P61224), the log2 fold change was inactive: 0.004.

For RANBP6 (UniProt O60518), the log2 fold change is inactive: 0.048.

As for RBM10 isoform 5 (UniProt P98175), the log2 fold change is inactive: -0.026.

Consider RAD9A (UniProt Q99638), for which the log2 fold change is inactive: -0.003.

For the target RAB2B (UniProt Q8WUD1), the log2 fold change was inactive: -0.03.

As to RAB8A (UniProt P61006), the log2 fold change is inactive: 0.042.

As to RANBP3 (UniProt Q9H6Z4), the log2 fold change is inactive: -0.023.

As for RAB11A (UniProt P62491), the log2 fold change is inactive: 0.07.

Consider RAB11B (UniProt Q15907), for which the log2 fold change was inactive: -0.003.

Consider RALB isoform 2 (UniProt P11234), for which the log2 fold change was inactive: -0.004.

Consider RAB40C (UniProt Q96S21), for which the log2 fold change is inactive: 0.212.

With RAB27B (UniProt O00194), the log2 fold change is inactive: 0.05.

Turning to RBKS (UniProt Q9H477), the log2 fold change is inactive: -0.048.

For RAB27A (UniProt P51159), the log2 fold change is inactive: -0.044.

Take RBL1 (UniProt P28749): the log2 fold change was inactive: -0.258.

Turning to RABGEF1 isoform 3 (UniProt Q9UJ41), the log2 fold change was inactive: 0.037.

Consider RANBP3 isoform 2 (UniProt Q9H6Z4), for which the log2 fold change is inactive: -0.069.

Take RAB29 (UniProt O14966): the log2 fold change is inactive: -0.035.

RAB14 (UniProt P61106): the log2 fold change was inactive: -0.01.

Take RABEP1 (UniProt Q15276): the log2 fold change is inactive: -0.038.

Consider RAB4B isoform 2 (UniProt P61018), for which the log2 fold change is inactive: -0.036.
